Among all 360,000 compounds or so, about 7,500 (2.1%) were called active. Inconclusive means that the source gave no clear call. Such entries were picked first, then a sample of the others. Calls follow the shape of the dose curve; as a rule, active = well fitted inhibition curve with a large enough effect; inconclusive = small, poorly fitted or top-dose-only effect, or effect the other way; inactive = flat fitted curve, though single readings scatter. A potency beside an inconclusive call is a rough fit, not a confirmed value.
Experiment: Nrf2 qHTS screen for inhibitors; also: nearly all actives have a fitted effect of over 60% in size
Conditions: A549 ARE-Fluc reporter, luciferase luminescence, 18-24 h; series mostly up to 46 µM
Method in brief: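 Concentration-response testing used A549 ARE_Fluc cells at 5000 cells/well. Following an 18-24 h compound incubation, viability was read by fluorescence (Ex 405/Em 525) and luciferase output by luminescence.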
Potency is read from the fitted curve at half-maximal effect.

Row | SMILES | Potency
1 | Cc1cc(Cl)ccc1OCCCC(=O)N/N=C/c1cccc([N+](=O)[O-])c1 | inactive
2 | CCOc1ccc(NC(=O)N2CCC(CN3CCc4ccccc4C3)CC2)cc1 | inactive
3 | CN(C)S(=O)(=O)c1ccc(S(=O)(=O)Nc2ccc3c(c2)oc2ccccc23)cc1 | inconclusive: 18.4 µM [falling, partial curve, poor fit]
4 | COc1ccc(NC(=O)C(=O)NCCC2CCCCN2S(=O)(=O)c2ccccc2)cc1 (stereo not drawn) | inactive
5 | CC(=O)Nc1csc2ccccc12 | inactive
6 | O=C(Cn1ccc2ccccc2c1=O)Nc1ccc2c(c1)OCO2 | inconclusive: 32.6 µM [activator, single point]
7 | CC(=O)N/N=C/c1c(C)[nH]n(-c2ccccc2)c1=O | active: 14.6 µM
8 | Cc1c(NC(=O)c2ccc(Cl)cc2)cc(C(C)C)c(O)c1S(=O)(=O)c1ccc(Cl)cc1 | inactive
9 | COc1ccccc1N1CCN(c2ccc(=O)n(CC(=O)Nc3ccc(F)c(F)c3)n2)CC1 | inactive
10 | CCC(C)/C(C)=N/NC(=O)c1ccc(CSc2nc3ccccc3s2)cc1 (stereo not drawn) | inconclusive: 25.9 µM [falling, single point]
11 | Cc1nn(Cc2cccc(C(=O)NC3CCCCC3)c2)c(C)c1Cl | inconclusive: 25.9 µM [falling, single point]
12 | COc1ccc(OC)c(CNn2c(-c3ccccc3F)nc3ccccc3c2=O)c1 | inconclusive: 18.4 µM [falling, partial curve, poor fit]
13 | COc1ccc(S(N)(=O)=O)cc1C(=O)OCC(=O)N1c2ccccc2NC(=O)C1(C)C | inactive
14 | CCN(Cc1nc2ccccc2c(=O)[nH]1)C(=O)COc1ccccc1Cc1ccccc1 | active: 16.4 µM
15 | CSc1ncc2c(n1)-c1cc(C)ccc1SC2 | inconclusive: 32.6 µM [falling, partial curve, poor fit]
16 | CCn1ncc2c(OCc3ccc(C#N)cc3)cc(C)nc21 | inconclusive: 9.2 µM [falling, partial curve, poor fit]
17 | COc1ccc(/C=C\c2onc(C)c2S(=O)(=O)N2CCC(C(=O)NCCC(C)C)CC2)cc1 | inconclusive: 29.1 µM [falling, single point]
18 | COc1ccc(-c2n[nH]c3c2CN(C(=O)c2ccccc2)CC3)cc1 | inconclusive: 14.6 µM [falling, single point]
19 | COc1ccc(C(=O)CCC(C)(C)[N+](=O)[O-])cc1 | inconclusive: 29.1 µM [activator, single point]
20 | Cc1nc(OCC(=O)c2ccc(Cl)cc2)c(C#N)c2c1COC(C)(C)C2 | inconclusive: 16.4 µM [falling, single point]
21 | Cc1ccc(C(=O)/C=C/c2ccc(Br)cc2)o1 | inconclusive: 16.4 µM [falling, partial curve, poor fit]
22 | Cc1cc2c3c(c1)C(C)(c1ccccc1)CC(C)(C)N3C(=O)C21C(C#N)=C(N)OC2=C1C(=O)CC(C)(C)C2 (stereo not drawn) | inactive
23 | O=C(CCn1c(=O)c2cccn2c2ccc(F)cc21)NCCc1ccccc1 | inconclusive: 18.4 µM [falling, partial curve, poor fit]

Row | SMILES | Potency
24 | COc1ccc2c(c1)CC(=O)NC=C2 | inconclusive: 11.6 µM [falling, partial curve, poor fit]
25 | O=C(NCC1CCCO1)c1ccccc1NS(=O)(=O)c1ccc(Br)s1 (stereo not drawn) | inactive
26 | CCCc1cc(C(=O)Nc2c(C)nn(Cc3ccc(C)cc3)c2C)no1 | inconclusive: 29.1 µM [falling, single point]
27 | Cc1ccc(C)c(NC(=S)NNC(=S)Nc2ccc(C(C)C)cc2)c1 | inconclusive: 29.1 µM [falling, single point]
28 | COCCCn1c(=O)c2ccccc2n2c(=S)[nH]nc12 | inactive
29 | NC(=O)CN1CCOCCOCCOCCOCCOCC1 | inconclusive: 29.1 µM [falling, single point]
30 | Cc1ccccc1-n1c(=S)[nH]c2nc3c(cc2c1=O)CCCC3 | inconclusive: 9.2 µM [falling, partial curve, poor fit]
31 | Cc1cc(NC(=O)c2c(F)cccc2Cl)n(-c2nc3ccccc3[nH]2)n1 | active: 14.6 µM
32 | COc1cccc(C(=O)SC2=NCCS2)c1 | inconclusive: 18.4 µM [falling, partial curve]
33 | O=C(CSc1ncnc2sc3c(c12)CCCCC3)NCc1ccco1 | inactive
34 | O=C(Nc1nc(SCc2ccc(F)cc2)ns1)c1ccco1 | inconclusive: 2.91 µM [activator, full curve]
35 | CCOC(=O)c1c(C)c(C(=O)NCc2ccco2)c(C)n1CC | inconclusive: 5.8 µM [activator, full curve, poor fit]
36 | CCN(c1ccccc1)S(=O)(=O)c1cccc(C(=O)OCC(=O)c2c(N)n(C)c(=O)n(C)c2=O)c1 | inconclusive: 29.1 µM [falling, single point]
37 | Cc1ccnc(NC(=O)CCC(=O)N(CC(=O)NCc2ccc(F)cc2)c2cccc(F)c2)c1 | inconclusive: 23.1 µM [falling, partial curve, poor fit]
38 | COc1ccc(OC)c2sc(NC(=O)c3cccc(N4C(=O)CCC4=O)c3)nc12 | inactive
39 | CC(=O)Nc1cccc2c1C(=O)N(c1ccc(C)cc1)C2=O | inconclusive: 29.1 µM [activator, single point]
40 | O=C(Nc1nnc(Cc2ccccc2)s1)c1cccnc1 | inconclusive: 18.4 µM [activator, partial curve, poor fit]
41 | CC(=O)c1cccc(NC(=O)Nc2ccccc2)c1 | inconclusive: 10.3 µM [activator, partial curve, poor fit]
42 | Cc1sc(NC(=O)c2ccco2)c(C(c2ccncc2)N2CCOCC2)c1C (stereo not drawn) | inactive
43 | O=C(CCn1ccc2cc(S(=O)(=O)N3CCCC3)ccc21)NCc1cccc(F)c1 | inconclusive: 20.6 µM [falling, single point]
44 | Cc1ccc(NC(=O)C2CCN(S(=O)(=O)c3ccc4c(c3)OCCCO4)CC2)nc1 | inconclusive: 29.1 µM [falling, single point]
45 | CN(C)c1ccc(C2Nc3cccc4cccc(c34)N2)cc1 | inactive
46 | Cn1c(=O)c2c(nc(NCc3ccccc3)n2CCCc2ccccc2)n(C)c1=O | inconclusive: 18.4 µM [falling, single point]

Look-ups from the list:
Entry of COc1ccc(OC)c2sc(NC(=O)c3cccc(N4C(=O)CCC4=O)c3)nc12 under Potency: inactive
Entry of CC(=O)Nc1cccc2c1C(=O)N(c1ccc(C)cc1)C2=O under Potency: inconclusive: 29.1 µM [activator, single point]
Entry of CN(C)c1ccc(C2Nc3cccc4cccc(c34)N2)cc1 under Potency: inactive
Entry of CCCc1cc(C(=O)Nc2c(C)nn(Cc3ccc(C)cc3)c2C)no1 under Potency: inconclusive: 29.1 µM [falling, single point]

(further entries)

Row | SMILES | Potency
47 | O=C(c1ccccc1F)N1CCN(c2cccc(C(F)(F)F)c2)CC1 | active: 18.4 µM
48 | COC(=O)c1[nH]c2ccccc2c1NC(=O)CN1CCN(C/C=C/c2ccccc2)CC1 | inconclusive: 25.9 µM [falling, single point]
49 | Nc1nnc(SCc2nnc(-c3ccccc3)o2)s1 | inconclusive: 5.8 µM [activator, full curve]
50 | Cc1ccc(C(=O)Nc2nnc(C)s2)cc1 | inconclusive: 1.16 µM [activator, full curve]
51 | c1ccc(-n2nnnc2SCc2cn3cccnc3n2)cc1 | inactive
52 | Cc1cccc(C)c1-n1ncc(C(=O)NCCN2CCOCC2)c1C1CCN(C(=O)OC(C)(C)C)CC1 | inconclusive: 13 µM [activator, partial curve]
53 | COC(=O)c1cc(-c2c(C)nn(-c3ccccc3)c2C)n[nH]1 | inconclusive: 25.9 µM [activator, partial curve, poor fit]
54 | COc1cccc(OCCSc2nc3ccccc3n2CC(=O)N2CCCCC2)c1 | active: 18.4 µM
55 | COc1cccc(-n2cc(C(=O)NCc3ccccc3OC)c3ccccc3c2=O)c1 | inconclusive: 9.2 µM [activator, partial curve]
56 | COc1ccc(OC)c(NC(=O)CSCc2cnn(-c3ccccc3)c2-n2cccc2)c1 | inactive
57 | COc1ccccc1N1CCN(S(=O)(=O)c2cn(C)cn2)CC1 | inconclusive: 4.11 µM [falling, partial curve, poor fit]
58 | NS(=O)(=O)c1ccc(NC(=O)/C=C/c2ccccc2[N+](=O)[O-])cc1 | inactive
59 | Cc1cc(C(=O)COC(=O)c2ccc(O)cc2)c(C)n1CC1COc2ccccc2O1 (stereo not drawn) | inconclusive: 29.1 µM [falling, single point]
60 | Cc1csc(N/N=C/c2ccccn2)n1 | inconclusive: 0.517 µM [activator, full curve, poor fit]
61 | COC(=O)c1cc(S(=O)(=O)NCC2CCN(Cc3cccc(F)c3)CC2)c[nH]1 | inconclusive: 29.1 µM [activator, single point]
62 | Cc1oc(S(=O)(=O)N2CCOCC2)cc1C(=O)Nc1ccc(F)cc1 | inconclusive: 29.1 µM [falling, single point]
63 | CC(C)Cc1cc(C(=O)N2CCCC(CO)(Cc3ccc(F)cc3)C2)no1 (stereo not drawn) | inconclusive: 29.1 µM [falling, single point]
64 | CCCCSc1ncnc2[nH]ncc12 | inconclusive: 1.64 µM [falling, partial curve, poor fit]
65 | CCN(CC)C(=O)[C@H]1C[C@H](CC(=O)NC/C=C(\C)CCC=C(C)C)C(=O)N2CCc3c([nH]c4cc(CCC(=O)N(C)C)ccc34)[C@]12C | inconclusive: 29.1 µM [falling, single point]
66 | Oc1ccc(C=Nc2ccccc2-c2nc3ccccc3[nH]2)cc1 | inconclusive: 14.6 µM [activator, partial curve, poor fit]
67 | COc1ccccc1C(=O)OCc1cc(=O)n2nc(C3CC3)sc2n1 | inconclusive: 4.61 µM [falling, full curve, poor fit]
68 | O=C(/C=C/c1ccccc1Cl)c1ccccc(=O)c1O | inconclusive: 29.1 µM [falling, single point]
